The test has as its target T1, HA tagged wild type PERK (PKR-like Endoplasmic Reticulum Kinase) (UniProt Q9Z2B5).
T1 sequence: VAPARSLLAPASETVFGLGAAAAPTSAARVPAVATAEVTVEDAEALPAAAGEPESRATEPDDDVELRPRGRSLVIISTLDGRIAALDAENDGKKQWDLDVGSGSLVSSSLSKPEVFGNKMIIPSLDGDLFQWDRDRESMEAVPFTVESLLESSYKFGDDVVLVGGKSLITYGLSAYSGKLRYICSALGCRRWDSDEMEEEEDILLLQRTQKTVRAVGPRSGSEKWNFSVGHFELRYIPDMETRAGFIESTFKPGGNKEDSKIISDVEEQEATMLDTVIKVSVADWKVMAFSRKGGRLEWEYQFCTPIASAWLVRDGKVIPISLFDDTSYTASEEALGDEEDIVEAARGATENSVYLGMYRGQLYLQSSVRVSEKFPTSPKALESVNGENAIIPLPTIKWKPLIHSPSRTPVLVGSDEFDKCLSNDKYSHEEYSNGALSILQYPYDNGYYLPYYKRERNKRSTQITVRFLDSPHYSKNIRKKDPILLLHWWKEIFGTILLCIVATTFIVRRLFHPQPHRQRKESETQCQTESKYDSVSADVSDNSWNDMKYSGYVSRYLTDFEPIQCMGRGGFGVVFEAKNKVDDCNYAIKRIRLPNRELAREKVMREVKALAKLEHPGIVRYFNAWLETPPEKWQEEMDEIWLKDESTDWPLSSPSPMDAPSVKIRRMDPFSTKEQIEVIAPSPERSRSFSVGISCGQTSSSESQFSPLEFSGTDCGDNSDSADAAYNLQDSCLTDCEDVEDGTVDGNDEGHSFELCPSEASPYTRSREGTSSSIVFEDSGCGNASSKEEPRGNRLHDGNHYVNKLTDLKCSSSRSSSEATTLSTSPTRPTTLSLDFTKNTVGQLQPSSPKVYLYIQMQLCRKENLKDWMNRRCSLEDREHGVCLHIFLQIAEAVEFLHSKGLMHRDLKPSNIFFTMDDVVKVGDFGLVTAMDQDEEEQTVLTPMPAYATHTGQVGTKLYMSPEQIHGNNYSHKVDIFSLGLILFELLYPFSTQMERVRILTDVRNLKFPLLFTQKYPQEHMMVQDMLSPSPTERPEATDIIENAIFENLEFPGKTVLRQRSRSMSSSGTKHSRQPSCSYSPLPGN
The test is described as follows: affinity purification with mass spectrometry.

No constants are given. Whether binding was seen depends on the method and setting. Binding seen in cells or lysates may run through a third protein. These calls come from enrichment with a bait or labelling near it, and not all partners need be listed. Sequences can lack the tags named with a protein.

Regarding “eIF2α (in HEK 293 cells) (from UniProt P05198 1-315)”, the binding entry is reported as “binds”.
